Source: PubChem BioAssay AID1224830 (NIAID, 2016)

Screen: 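Genes whose knock-down alters the TNF-alpha reporter response to LPS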 (primary screen)
Cell system: human THP-1 monocytic leukaemia cells, TNF dual-luciferase reporter clone, PMA-differentiated to macrophage-like cells
Reagent: siRNA pool against human genes, 50 nM
Time to read-out: LPS for 4 h, given about 3 days after siRNA transfection
Conditions: bacterial LPS (TLR4 ligand), 10 ng/ml
Measured: 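TNF firefly reporter luminescence divided by renilla, normalised to the plate median, then turned into a robust z-score for each replicate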
Scale: TNF reporter robust z-score: higher = stronger TNF reporter response to LPS
Rule for the call: 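a well is active when its z-score exceeds 2.8 or falls below -1.5; control wells carry no call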
Here is a random part of about 18,000 reagents tested. In the full data, about 2,900 (16%) were called active. 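Calls are made per well; low scores hint the gene aids the LPS response, high scores that it dampens it.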 Unmarked entries are inactive. Repeated entries: four replicate wells of each siRNA pool.

TNF reporter robust z-score | gene | PubChem SID
-2.01 (active) | PLD5 (GeneID 200150) | SID315463023
-1.17 | PLD5 (GeneID 200150) | SID315463023
-1.14 | PLD5 (GeneID 200150) | SID315463023
-1.05 | PLD5 (GeneID 200150) | SID315463023
1.04 | ST20-AS1 (GeneID 283687) | SID315463698
0.08 | ST20-AS1 (GeneID 283687) | SID315463698
-0.04 | ST20-AS1 (GeneID 283687) | SID315463698
0.01 | ST20-AS1 (GeneID 283687) | SID315463698
-0.13 | ZNF517 (GeneID 340385) | SID315464081
-0.2 | ZNF517 (GeneID 340385) | SID315464081
-1.17 | ZNF517 (GeneID 340385) | SID315464081
0.14 | ZNF517 (GeneID 340385) | SID315464081
0.33 | TCF25 (GeneID 22980) | SID315454906
-0.11 | TCF25 (GeneID 22980) | SID315454906
1.13 | TCF25 (GeneID 22980) | SID315454906
0.93 | TCF25 (GeneID 22980) | SID315454906
-0.29 | NDUFAF5 (GeneID 79133) | SID315459219
-0.83 | NDUFAF5 (GeneID 79133) | SID315459219
-0.39 | NDUFAF5 (GeneID 79133) | SID315459219
2.48 | NDUFAF5 (GeneID 79133) | SID315459219
0.44 | COX6B1 (GeneID 1340) | SID315448049
0.43 | COX6B1 (GeneID 1340) | SID315448049
0.4 | COX6B1 (GeneID 1340) | SID315448049
0.88 | COX6B1 (GeneID 1340) | SID315448049
0 | TSNAX (GeneID 7257) | SID315451991
0.8 | TSNAX (GeneID 7257) | SID315451991
-0.2 | TSNAX (GeneID 7257) | SID315451991
0.94 | TSNAX (GeneID 7257) | SID315451991
1.21 | SEC61A2 (GeneID 55176) | SID315457468
-0.6 | SEC61A2 (GeneID 55176) | SID315457468
1.92 | SEC61A2 (GeneID 55176) | SID315457468
-1.36 | SEC61A2 (GeneID 55176) | SID315457468
-0.15 | KIF1A (GeneID 547) | SID315447492
-0.89 | KIF1A (GeneID 547) | SID315447492
-0.92 | KIF1A (GeneID 547) | SID315447492
-1.23 | KIF1A (GeneID 547) | SID315447492
-0.8 | CFAP36 (GeneID 112942) | SID315461167
0.05 | CFAP36 (GeneID 112942) | SID315461167
1.73 | CFAP36 (GeneID 112942) | SID315461167
1.58 | CFAP36 (GeneID 112942) | SID315461167
0.68 | GRTP1 (GeneID 79774) | SID315459449
1 | GRTP1 (GeneID 79774) | SID315459449
0.54 | GRTP1 (GeneID 79774) | SID315459449
-1.55 (active) | GRTP1 (GeneID 79774) | SID315459449
-1.47 | ZNF321P (GeneID 399669) | SID315464715
0.77 | ZNF321P (GeneID 399669) | SID315464715
-0.29 | ZNF321P (GeneID 399669) | SID315464715
0.13 | ZNF321P (GeneID 399669) | SID315464715
1.11 | ARMH4 (GeneID 145407) | SID315462243
0.55 | ARMH4 (GeneID 145407) | SID315462243
0.81 | ARMH4 (GeneID 145407) | SID315462243
1 | ARMH4 (GeneID 145407) | SID315462243
0.68 | FNIP1 (GeneID 96459) | SID315461133
1.14 | FNIP1 (GeneID 96459) | SID315461133
-0.15 | FNIP1 (GeneID 96459) | SID315461133
0.65 | FNIP1 (GeneID 96459) | SID315461133
2.32 | SCYL1 (GeneID 57410) | SID315458374
0.19 | SCYL1 (GeneID 57410) | SID315458374
0.74 | SCYL1 (GeneID 57410) | SID315458374
0.51 | SCYL1 (GeneID 57410) | SID315458374
-0.39 | DHX35 (GeneID 60625) | SID315458729
1.34 | DHX35 (GeneID 60625) | SID315458729
-0.71 | DHX35 (GeneID 60625) | SID315458729
2.15 | DHX35 (GeneID 60625) | SID315458729
0.91 | TMEM234 (GeneID 56063) | SID315457983
-0.17 | TMEM234 (GeneID 56063) | SID315457983
1.08 | TMEM234 (GeneID 56063) | SID315457983
-0.37 | TMEM234 (GeneID 56063) | SID315457983
0.07 | OSTF1 (GeneID 26578) | SID315455821
0.36 | OSTF1 (GeneID 26578) | SID315455821
0.55 | OSTF1 (GeneID 26578) | SID315455821
-0.5 | OSTF1 (GeneID 26578) | SID315455821
2.4 | PRDM8 (GeneID 56978) | SID315458202
2.34 | PRDM8 (GeneID 56978) | SID315458202
1.15 | PRDM8 (GeneID 56978) | SID315458202
1.73 | PRDM8 (GeneID 56978) | SID315458202
-0.15 | CD177 (GeneID 57126) | SID315458279
-0.51 | CD177 (GeneID 57126) | SID315458279
-0.09 | CD177 (GeneID 57126) | SID315458279
0.26 | CD177 (GeneID 57126) | SID315458279
-0.87 | SLITRK4 (GeneID 139065) | SID315462059
-0.4 | SLITRK4 (GeneID 139065) | SID315462059
-0.46 | SLITRK4 (GeneID 139065) | SID315462059
-0.49 | SLITRK4 (GeneID 139065) | SID315462059
-0.06 | BCKDK (GeneID 10295) | SID315453985
0.18 | BCKDK (GeneID 10295) | SID315453985
0.08 | BCKDK (GeneID 10295) | SID315453985
0.82 | BCKDK (GeneID 10295) | SID315453985

Called active, of those listed so far:
TNF reporter robust z-score | gene | PubChem SID
-2.01 (active) | PLD5 (GeneID 200150) | SID315463023
-1.55 (active) | GRTP1 (GeneID 79774) | SID315459449

Continued.
TNF reporter robust z-score | gene | PubChem SID
0.68 | RGS5 (GeneID 8490) | SID315452595
0.48 | RGS5 (GeneID 8490) | SID315452595
0.73 | RGS5 (GeneID 8490) | SID315452595
0.53 | RGS5 (GeneID 8490) | SID315452595
-0.94 | LCE5A (GeneID 254910) | SID315463470
0.54 | LCE5A (GeneID 254910) | SID315463470
-1.37 | LCE5A (GeneID 254910) | SID315463470
-1.05 | LCE5A (GeneID 254910) | SID315463470
-0.02 | M6PR (GeneID 4074) | SID315449834
0.88 | M6PR (GeneID 4074) | SID315449834
-0.49 | M6PR (GeneID 4074) | SID315449834
0.36 | M6PR (GeneID 4074) | SID315449834
-1.91 (active) | C8orf74 (GeneID 203076) | SID315463112
-1.83 (active) | C8orf74 (GeneID 203076) | SID315463112
-2.06 (active) | C8orf74 (GeneID 203076) | SID315463112
-1.97 (active) | C8orf74 (GeneID 203076) | SID315463112
0.11 | DHTKD1 (GeneID 55526) | SID315457665
-0.91 | DHTKD1 (GeneID 55526) | SID315457665
-1.07 | DHTKD1 (GeneID 55526) | SID315457665
0.71 | DHTKD1 (GeneID 55526) | SID315457665
-0.65 | DNAJB8 (GeneID 165721) | SID315462830
0.15 | DNAJB8 (GeneID 165721) | SID315462830
-0.1 | DNAJB8 (GeneID 165721) | SID315462830
0.97 | GPRASP3 (GeneID 80823) | SID315459819
0.64 | GPRASP3 (GeneID 80823) | SID315459819
0.13 | GPRASP3 (GeneID 80823) | SID315459819
1.16 | GPRASP3 (GeneID 80823) | SID315459819
1.15 | EBF3 (GeneID 253738) | SID315463427
0.59 | EBF3 (GeneID 253738) | SID315463427
1.75 | EBF3 (GeneID 253738) | SID315463427
-0.05 | EBF3 (GeneID 253738) | SID315463427
2.46 | SMIM11 (GeneID 54065) | SID315456959
3.58 (active) | SMIM11 (GeneID 54065) | SID315456959
-0.34 | SMIM11 (GeneID 54065) | SID315456959
-0.51 | SMIM11 (GeneID 54065) | SID315456959
-0.56 | COX7C (GeneID 1350) | SID315448054
0.25 | COX7C (GeneID 1350) | SID315448054
-0.43 | COX7C (GeneID 1350) | SID315448054
0.27 | COX7C (GeneID 1350) | SID315448054
-0.67 | ADAM20 (GeneID 8748) | SID315452795
0.37 | ADAM20 (GeneID 8748) | SID315452795
0.93 | ADAM20 (GeneID 8748) | SID315452795
0.41 | ADAM20 (GeneID 8748) | SID315452795
-0.37 | ARPC1A (GeneID 10552) | SID315454182
-0.61 | ARPC1A (GeneID 10552) | SID315454182
-0.73 | ARPC1A (GeneID 10552) | SID315454182
-1 | ARPC1A (GeneID 10552) | SID315454182
-0.11 | GINS1 (GeneID 9837) | SID315453607
-0.43 | GINS1 (GeneID 9837) | SID315453607
-0.27 | GINS1 (GeneID 9837) | SID315453607
0.03 | GINS1 (GeneID 9837) | SID315453607
0.29 | C1QB (GeneID 713) | SID315447607
-0.49 | C1QB (GeneID 713) | SID315447607
-0.24 | C1QB (GeneID 713) | SID315447607
0.28 | C1QB (GeneID 713) | SID315447607
